The text below walks through data of publication PMC4755751 (eLife, 2015).

Sequences of proteins named here, by UniProt entry; tags and fusion partners are left off.
UniProt Q5EE04: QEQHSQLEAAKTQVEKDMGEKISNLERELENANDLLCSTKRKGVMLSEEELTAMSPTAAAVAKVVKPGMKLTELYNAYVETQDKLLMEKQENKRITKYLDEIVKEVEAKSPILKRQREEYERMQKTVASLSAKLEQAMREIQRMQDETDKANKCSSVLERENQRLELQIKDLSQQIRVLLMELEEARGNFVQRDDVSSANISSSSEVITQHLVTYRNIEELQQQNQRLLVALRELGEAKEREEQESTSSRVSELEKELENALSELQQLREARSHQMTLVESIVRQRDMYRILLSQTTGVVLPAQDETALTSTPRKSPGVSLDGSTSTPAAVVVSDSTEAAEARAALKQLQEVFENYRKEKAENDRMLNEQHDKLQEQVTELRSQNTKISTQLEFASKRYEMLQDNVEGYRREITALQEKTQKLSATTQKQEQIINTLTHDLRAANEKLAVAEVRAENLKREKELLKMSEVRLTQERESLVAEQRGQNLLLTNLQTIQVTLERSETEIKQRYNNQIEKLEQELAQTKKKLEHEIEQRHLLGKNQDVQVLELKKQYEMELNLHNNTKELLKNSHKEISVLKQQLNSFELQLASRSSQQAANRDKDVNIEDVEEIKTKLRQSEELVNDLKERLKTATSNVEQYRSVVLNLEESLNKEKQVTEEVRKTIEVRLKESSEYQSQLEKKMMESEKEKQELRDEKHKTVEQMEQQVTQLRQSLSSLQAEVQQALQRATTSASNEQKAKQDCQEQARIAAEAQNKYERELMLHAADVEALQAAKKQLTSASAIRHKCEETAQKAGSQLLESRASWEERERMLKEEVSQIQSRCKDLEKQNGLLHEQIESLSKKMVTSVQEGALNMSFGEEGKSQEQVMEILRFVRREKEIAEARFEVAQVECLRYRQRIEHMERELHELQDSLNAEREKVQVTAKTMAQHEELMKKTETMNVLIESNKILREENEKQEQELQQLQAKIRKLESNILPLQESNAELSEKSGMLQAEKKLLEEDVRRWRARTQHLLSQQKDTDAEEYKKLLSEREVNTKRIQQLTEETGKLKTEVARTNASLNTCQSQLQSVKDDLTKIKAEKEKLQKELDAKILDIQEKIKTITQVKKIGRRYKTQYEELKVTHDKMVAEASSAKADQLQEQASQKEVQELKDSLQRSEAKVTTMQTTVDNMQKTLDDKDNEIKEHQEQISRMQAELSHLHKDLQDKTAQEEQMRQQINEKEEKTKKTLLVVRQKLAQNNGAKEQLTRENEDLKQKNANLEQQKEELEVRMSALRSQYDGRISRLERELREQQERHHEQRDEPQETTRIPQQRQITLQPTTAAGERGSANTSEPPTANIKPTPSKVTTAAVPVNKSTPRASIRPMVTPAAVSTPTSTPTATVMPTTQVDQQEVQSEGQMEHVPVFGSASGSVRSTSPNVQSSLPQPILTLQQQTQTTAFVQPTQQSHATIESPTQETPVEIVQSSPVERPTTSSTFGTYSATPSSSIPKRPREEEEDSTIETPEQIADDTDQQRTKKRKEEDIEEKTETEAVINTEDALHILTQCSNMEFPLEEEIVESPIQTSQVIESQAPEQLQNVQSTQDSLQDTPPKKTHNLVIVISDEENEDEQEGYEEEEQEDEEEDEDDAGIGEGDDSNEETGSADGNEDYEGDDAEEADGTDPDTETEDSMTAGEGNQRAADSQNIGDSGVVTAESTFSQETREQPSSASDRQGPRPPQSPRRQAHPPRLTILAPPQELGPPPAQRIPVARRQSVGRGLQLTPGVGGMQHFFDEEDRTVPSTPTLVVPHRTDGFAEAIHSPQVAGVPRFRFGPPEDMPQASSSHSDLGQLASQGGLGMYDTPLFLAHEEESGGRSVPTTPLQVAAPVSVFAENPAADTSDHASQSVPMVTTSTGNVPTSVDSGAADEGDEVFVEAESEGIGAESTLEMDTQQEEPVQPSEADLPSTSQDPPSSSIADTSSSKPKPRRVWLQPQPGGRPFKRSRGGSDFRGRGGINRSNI
UniProt Q5U249: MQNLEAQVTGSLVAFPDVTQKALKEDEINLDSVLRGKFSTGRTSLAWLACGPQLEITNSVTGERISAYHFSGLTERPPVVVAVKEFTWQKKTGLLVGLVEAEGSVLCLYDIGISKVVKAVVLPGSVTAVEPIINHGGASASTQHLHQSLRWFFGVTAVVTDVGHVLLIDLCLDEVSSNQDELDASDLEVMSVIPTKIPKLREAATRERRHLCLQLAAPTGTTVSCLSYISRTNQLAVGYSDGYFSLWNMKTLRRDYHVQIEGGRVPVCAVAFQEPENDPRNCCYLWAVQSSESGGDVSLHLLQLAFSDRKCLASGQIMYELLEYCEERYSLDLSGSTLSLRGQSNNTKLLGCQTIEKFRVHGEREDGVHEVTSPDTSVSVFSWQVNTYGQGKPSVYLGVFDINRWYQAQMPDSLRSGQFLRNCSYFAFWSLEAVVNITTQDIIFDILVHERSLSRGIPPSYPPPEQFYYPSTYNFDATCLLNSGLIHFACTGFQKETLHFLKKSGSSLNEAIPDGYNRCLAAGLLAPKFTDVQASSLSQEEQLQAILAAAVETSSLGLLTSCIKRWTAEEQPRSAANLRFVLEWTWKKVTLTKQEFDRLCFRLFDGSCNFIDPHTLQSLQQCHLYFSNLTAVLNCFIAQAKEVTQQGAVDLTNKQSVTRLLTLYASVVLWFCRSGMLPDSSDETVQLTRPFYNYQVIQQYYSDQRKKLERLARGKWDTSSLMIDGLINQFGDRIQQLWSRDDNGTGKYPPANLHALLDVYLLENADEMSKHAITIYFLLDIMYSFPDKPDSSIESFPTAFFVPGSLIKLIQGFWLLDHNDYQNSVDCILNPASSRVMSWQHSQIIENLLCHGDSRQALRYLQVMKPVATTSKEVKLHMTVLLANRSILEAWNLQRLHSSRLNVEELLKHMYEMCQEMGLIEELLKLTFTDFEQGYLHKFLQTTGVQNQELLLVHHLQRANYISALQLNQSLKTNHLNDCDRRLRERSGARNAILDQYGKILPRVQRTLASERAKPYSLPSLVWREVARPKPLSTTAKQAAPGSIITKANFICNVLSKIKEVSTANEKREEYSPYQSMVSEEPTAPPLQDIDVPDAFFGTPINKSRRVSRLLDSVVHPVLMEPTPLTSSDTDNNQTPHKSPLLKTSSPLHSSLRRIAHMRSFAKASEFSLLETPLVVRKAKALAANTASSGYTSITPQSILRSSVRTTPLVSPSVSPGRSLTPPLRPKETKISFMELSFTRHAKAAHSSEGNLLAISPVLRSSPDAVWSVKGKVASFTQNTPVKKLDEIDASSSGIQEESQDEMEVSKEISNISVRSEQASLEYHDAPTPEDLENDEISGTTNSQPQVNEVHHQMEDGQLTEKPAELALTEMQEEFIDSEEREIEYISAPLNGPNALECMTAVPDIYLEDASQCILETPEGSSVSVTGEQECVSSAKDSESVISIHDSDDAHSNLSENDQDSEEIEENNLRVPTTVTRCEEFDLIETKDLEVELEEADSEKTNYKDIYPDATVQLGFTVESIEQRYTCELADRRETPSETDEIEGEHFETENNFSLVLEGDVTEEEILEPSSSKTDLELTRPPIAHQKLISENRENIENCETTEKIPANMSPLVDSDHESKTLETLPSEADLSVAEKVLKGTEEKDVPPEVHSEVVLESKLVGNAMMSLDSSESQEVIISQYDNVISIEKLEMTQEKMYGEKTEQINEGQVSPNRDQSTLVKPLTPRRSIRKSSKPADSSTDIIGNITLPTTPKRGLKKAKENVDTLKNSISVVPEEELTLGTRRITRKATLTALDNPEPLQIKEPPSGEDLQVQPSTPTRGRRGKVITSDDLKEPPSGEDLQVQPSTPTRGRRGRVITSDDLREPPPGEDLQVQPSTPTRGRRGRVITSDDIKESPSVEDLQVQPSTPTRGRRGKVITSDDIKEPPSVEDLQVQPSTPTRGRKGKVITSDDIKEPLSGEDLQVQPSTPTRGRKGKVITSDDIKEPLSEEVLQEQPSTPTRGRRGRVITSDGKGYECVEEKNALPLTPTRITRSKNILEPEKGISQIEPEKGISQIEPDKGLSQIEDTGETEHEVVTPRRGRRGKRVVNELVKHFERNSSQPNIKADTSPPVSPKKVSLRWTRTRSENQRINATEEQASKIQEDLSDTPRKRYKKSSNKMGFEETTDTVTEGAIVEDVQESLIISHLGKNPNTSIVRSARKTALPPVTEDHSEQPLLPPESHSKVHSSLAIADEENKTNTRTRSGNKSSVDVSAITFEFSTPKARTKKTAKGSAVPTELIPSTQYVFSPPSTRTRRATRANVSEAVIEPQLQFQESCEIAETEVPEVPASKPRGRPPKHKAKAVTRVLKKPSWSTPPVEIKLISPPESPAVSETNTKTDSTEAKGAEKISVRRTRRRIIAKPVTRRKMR

Results are given in words; binding and its absence hold for the method and conditions named. Binding seen in cells or lysates may run through a third protein. These calls come from enrichment with a bait or labelling near it, and not all partners need be listed.

This assay concerns the target T1, Nup85 (endogenous, Xenopus egg extract) (Xenopus (endogenous in egg extract)) (UniProt Q68FJ0).
T1 sequence: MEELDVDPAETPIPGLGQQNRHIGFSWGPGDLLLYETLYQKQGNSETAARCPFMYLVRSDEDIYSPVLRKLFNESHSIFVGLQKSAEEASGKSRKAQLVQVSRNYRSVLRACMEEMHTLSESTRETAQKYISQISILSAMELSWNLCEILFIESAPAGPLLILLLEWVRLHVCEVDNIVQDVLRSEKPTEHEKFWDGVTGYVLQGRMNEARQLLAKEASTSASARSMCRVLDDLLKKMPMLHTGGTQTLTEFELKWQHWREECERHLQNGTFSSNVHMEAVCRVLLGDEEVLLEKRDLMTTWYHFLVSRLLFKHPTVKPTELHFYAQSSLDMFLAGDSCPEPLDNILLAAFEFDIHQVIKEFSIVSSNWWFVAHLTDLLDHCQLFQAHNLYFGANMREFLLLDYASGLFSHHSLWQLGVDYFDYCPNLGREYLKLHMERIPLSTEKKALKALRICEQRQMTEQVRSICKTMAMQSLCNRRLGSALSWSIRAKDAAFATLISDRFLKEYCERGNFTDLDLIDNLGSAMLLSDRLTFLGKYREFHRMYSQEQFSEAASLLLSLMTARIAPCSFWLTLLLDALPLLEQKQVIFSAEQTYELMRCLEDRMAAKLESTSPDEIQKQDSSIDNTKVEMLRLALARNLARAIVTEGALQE
Kind of assay: affinity purification with mass spectrometry; endogenous nucleoporin complexes retrieved from Xenopus egg extract (HSS) through a nanobody against one member on magnetic Streptavidin beads, 1 h at 4°C, washes up to 300 mM NaCl, 0.05% Tween-20; RanQ69L•GTP wash for the anti-Nup98 and anti-Nup54 nanobodies; elution by SUMOStar protease; bands identified by mass spectrometry.

Turning to “Tpr (endogenous, Xenopus egg extract) (from UniProt Q5EE04 1-1997)”, the binding entry is reported as “binds”.

Turning to “Elys (endogenous, Xenopus egg extract) (from UniProt Q5U249 1-2408)”, the binding result is reported as “binds”.
